Measured values published in patent US12351557B2, “Chemical compound manufacture, new salt form, and therapeutic uses thereof” (Eustralis Pharmaceuticals Limited (Trading As Pressura …, priority 2018, dated 2025).
Where a name gives a salt, the structure may show the parent alone.

Test: Bacterial Endotoxins
Conditions: 40° C./75% RH

Structure (SMILES): Cc1ccccc1-c1cc(N2CCN(C)CC2)ncc1C(=O)N(C)Cc1cc(C(F)(F)F)cc(C(F)(F)F)c1 [Compound of formula (1) 2HCl salt]
- Bacterial Endotoxins (0 months): <0.012 EU/mg
- Bacterial Endotoxins (Initial Release): <0.012 EU/mg
